The text below walks through data of PMC9857240.

Sequences of proteins named here, by UniProt entry; tags and fusion partners are left off.
UniProt P12956: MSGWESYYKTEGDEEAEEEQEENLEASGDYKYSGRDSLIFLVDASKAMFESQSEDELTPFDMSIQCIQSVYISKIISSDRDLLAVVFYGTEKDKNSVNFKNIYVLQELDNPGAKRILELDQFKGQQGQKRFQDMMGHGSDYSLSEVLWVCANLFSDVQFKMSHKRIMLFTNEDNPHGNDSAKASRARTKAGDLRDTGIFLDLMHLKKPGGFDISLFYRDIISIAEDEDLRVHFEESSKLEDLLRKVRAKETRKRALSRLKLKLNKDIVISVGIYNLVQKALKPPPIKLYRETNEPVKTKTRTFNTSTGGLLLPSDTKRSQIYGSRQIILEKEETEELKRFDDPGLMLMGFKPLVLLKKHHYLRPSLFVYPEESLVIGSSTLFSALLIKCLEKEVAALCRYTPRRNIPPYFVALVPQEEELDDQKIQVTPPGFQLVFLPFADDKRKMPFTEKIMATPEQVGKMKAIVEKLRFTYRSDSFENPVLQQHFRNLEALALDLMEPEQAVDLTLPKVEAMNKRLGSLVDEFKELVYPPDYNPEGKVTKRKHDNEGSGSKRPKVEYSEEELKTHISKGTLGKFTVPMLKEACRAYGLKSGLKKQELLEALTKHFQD

These are yes or no findings as the source states them, for the method shown. In cells and extracts the contact can be indirect. Some binding calls cover weakened binding; strength is not graded here. Tags and fused reporters may be left off the sequences shown.

The test has as its target T1, GFP-IPO13 (UniProt Q8K0C1).
T1 sequence: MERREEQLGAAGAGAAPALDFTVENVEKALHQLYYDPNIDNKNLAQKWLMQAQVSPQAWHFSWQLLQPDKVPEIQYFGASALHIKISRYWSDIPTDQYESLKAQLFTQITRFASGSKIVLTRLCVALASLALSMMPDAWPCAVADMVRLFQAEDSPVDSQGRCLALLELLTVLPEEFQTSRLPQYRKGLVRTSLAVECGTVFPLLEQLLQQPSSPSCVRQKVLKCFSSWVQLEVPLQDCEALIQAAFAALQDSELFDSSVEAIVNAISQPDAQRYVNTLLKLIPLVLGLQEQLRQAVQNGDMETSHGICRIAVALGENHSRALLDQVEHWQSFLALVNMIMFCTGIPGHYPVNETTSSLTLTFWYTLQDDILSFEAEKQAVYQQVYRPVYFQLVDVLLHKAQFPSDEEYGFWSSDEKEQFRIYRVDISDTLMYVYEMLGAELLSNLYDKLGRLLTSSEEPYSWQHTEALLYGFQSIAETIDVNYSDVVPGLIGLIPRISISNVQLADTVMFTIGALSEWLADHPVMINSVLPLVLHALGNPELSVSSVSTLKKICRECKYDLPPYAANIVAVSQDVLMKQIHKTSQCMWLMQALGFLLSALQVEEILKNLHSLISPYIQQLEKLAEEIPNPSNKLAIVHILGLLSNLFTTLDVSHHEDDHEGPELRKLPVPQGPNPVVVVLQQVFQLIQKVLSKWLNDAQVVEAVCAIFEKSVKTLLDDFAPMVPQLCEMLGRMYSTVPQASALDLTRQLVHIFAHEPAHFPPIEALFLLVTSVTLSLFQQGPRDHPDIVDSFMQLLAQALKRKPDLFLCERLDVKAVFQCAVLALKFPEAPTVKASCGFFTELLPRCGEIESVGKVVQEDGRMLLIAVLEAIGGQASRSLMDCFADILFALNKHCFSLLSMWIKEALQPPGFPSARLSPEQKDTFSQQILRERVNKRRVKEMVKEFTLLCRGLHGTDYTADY
Briefly: co-IP; HeLa, transfected, with or without 125 uM H2O2 for 1 h, glutaraldehyde protein cross-linking before lysis; GFP-Trap; Western blot.

Regarding “endogenous KU70 (from UniProt P12956 1-609)”, the binding result is given as “binds”. “mCherry-KU70 (from UniProt P12956 1-609)”: the binding entry was “binds”.
